Measurements reported in paper PMC7918530.
No constants are given. Whether binding was seen depends on the method and setting. In cells and extracts the contact can be indirect. Here binding means that the protein was enriched with, or labelled near, the bait; the list need not be complete.

Sequences of proteins named here, by UniProt entry; tags and fusion partners are left off.
UniProt O09032: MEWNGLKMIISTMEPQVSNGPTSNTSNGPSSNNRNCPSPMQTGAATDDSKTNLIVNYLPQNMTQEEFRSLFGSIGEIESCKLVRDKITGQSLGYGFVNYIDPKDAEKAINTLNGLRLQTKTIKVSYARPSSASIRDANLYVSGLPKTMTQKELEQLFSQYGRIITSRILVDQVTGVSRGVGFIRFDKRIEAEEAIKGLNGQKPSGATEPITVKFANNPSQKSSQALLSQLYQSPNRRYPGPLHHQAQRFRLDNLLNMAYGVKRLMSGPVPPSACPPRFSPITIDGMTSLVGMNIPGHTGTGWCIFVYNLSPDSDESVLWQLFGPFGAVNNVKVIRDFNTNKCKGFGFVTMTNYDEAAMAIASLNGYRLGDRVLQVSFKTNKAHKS
UniProt Q7TP98: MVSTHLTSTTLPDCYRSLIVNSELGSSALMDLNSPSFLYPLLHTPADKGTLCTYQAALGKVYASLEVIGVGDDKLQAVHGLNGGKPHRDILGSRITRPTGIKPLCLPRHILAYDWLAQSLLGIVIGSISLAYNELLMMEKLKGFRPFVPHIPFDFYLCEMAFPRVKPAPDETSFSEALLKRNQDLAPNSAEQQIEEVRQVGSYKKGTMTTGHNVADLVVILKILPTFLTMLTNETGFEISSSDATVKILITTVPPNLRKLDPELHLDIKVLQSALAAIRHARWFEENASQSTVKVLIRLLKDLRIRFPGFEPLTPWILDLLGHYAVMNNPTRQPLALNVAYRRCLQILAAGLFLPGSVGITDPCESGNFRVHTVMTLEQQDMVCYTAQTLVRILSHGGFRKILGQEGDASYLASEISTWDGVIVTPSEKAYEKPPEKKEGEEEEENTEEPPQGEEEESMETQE
UniProt Q8CH84: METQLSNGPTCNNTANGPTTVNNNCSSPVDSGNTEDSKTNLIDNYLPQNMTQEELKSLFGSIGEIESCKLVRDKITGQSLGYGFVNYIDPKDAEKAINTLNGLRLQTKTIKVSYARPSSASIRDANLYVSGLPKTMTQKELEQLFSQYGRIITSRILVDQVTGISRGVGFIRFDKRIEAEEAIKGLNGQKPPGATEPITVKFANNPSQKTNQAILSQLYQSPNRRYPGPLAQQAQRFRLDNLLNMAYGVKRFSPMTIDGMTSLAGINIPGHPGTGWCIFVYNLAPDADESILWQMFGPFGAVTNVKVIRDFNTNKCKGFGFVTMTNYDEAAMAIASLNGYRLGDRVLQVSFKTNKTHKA

molecular target: T1, Upf1 (rat (endogenous in PC12 cells and sympathetic neurons)); assay: affinity purification with mass spectrometry; Upf1 immuno-complexes precipitated from 20x10^6 PC12 cells, naive or differentiated with NGF for 4 days; on-bead tryptic digestion, oxygen18 differential labeling, nano LC-MS/MS
T1 sequence: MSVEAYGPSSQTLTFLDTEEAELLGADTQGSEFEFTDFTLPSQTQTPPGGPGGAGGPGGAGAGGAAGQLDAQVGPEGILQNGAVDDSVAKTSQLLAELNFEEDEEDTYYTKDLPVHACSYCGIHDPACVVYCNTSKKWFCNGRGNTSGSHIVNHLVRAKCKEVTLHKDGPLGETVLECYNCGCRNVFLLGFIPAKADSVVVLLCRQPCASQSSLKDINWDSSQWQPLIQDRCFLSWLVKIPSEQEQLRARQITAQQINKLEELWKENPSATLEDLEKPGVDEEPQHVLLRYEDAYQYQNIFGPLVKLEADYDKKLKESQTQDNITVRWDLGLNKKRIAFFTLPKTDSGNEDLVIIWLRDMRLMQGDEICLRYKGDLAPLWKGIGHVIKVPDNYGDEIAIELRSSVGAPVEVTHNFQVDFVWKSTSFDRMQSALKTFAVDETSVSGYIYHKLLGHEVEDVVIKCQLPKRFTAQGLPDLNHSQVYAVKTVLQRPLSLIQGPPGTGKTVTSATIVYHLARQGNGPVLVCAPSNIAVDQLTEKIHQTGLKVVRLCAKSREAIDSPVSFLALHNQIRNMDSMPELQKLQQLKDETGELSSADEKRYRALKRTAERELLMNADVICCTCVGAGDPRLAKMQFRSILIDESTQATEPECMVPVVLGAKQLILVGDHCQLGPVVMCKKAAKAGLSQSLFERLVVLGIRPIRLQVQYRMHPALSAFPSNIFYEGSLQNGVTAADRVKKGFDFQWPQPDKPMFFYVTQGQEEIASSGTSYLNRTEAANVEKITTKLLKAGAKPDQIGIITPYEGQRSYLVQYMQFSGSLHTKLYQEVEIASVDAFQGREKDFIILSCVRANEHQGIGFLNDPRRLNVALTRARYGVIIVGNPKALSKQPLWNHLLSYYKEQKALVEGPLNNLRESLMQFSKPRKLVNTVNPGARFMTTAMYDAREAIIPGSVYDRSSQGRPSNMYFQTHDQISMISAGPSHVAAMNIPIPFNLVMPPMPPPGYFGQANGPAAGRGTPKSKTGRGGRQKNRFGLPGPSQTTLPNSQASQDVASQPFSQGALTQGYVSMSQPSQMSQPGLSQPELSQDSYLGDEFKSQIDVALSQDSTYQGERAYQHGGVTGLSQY

binding, binds:
ELAV-like protein 4 (HuD) (from UniProt O09032 1-385)
interleukin enhancer-binding factor 2 (from UniProt Q7TP98 1-463)
ELAV-like protein 2 (from UniProt Q8CH84 1-359)
